{"sequences": {"note": "Protein sequences, listed by entry. Tags and fused reporters are not part of them. Lines headed by an entry give the natural chain unless they say otherwise; changes in a name come on top.", "UniProt P09169": "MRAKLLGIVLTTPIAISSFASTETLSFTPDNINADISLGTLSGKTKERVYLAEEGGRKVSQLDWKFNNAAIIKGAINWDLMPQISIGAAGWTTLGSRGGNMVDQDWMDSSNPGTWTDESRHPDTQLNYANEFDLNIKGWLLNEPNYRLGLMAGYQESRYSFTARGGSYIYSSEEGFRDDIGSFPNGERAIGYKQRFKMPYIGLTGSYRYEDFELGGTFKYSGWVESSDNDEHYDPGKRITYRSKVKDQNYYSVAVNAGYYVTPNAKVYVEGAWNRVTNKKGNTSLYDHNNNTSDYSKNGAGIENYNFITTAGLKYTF", "UniProt P00579, whole entry": "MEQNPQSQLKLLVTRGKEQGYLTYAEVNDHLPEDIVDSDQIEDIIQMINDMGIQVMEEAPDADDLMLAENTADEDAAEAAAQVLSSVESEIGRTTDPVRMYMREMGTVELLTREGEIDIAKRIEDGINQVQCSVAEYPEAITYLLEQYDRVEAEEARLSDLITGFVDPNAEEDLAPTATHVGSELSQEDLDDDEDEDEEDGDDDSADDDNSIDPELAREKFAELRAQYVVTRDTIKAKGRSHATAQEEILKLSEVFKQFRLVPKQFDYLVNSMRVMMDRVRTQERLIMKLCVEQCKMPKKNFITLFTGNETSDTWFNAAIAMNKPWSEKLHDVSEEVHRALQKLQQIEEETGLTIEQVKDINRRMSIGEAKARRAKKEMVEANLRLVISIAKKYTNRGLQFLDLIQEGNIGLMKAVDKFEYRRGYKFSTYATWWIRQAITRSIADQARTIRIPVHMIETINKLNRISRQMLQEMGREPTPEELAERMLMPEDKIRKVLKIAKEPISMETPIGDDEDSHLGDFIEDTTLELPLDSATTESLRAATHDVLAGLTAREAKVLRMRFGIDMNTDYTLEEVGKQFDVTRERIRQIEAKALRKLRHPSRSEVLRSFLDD", "UniProt P03817": "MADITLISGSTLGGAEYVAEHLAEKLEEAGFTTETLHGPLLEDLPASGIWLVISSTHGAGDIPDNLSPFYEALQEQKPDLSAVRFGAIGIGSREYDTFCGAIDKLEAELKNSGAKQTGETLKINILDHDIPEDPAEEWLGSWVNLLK", "UniProt P08192": "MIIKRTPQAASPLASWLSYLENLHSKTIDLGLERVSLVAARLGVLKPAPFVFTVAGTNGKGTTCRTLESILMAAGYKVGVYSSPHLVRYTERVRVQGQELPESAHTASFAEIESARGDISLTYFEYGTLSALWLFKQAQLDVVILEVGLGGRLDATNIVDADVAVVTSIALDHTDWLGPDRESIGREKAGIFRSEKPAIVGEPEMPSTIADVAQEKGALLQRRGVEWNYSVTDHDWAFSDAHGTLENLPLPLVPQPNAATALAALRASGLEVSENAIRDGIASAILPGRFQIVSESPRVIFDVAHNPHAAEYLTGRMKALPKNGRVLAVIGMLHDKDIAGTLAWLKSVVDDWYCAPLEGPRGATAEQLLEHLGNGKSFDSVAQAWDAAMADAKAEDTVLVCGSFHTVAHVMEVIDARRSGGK", "UniProt P08142": "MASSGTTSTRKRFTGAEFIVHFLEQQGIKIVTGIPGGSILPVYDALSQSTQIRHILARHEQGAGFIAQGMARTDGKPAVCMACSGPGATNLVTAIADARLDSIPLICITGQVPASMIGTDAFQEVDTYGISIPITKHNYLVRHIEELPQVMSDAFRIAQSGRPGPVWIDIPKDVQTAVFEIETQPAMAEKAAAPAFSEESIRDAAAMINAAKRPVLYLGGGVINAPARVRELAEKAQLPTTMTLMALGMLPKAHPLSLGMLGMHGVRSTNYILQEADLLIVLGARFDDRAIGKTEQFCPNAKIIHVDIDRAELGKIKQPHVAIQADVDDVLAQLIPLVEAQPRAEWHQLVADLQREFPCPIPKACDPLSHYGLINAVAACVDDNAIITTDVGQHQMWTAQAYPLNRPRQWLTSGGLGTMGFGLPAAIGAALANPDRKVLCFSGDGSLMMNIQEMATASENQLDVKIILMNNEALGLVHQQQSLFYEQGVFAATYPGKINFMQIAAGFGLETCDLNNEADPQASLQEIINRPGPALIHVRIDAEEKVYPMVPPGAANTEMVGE", "UniProt P08201": "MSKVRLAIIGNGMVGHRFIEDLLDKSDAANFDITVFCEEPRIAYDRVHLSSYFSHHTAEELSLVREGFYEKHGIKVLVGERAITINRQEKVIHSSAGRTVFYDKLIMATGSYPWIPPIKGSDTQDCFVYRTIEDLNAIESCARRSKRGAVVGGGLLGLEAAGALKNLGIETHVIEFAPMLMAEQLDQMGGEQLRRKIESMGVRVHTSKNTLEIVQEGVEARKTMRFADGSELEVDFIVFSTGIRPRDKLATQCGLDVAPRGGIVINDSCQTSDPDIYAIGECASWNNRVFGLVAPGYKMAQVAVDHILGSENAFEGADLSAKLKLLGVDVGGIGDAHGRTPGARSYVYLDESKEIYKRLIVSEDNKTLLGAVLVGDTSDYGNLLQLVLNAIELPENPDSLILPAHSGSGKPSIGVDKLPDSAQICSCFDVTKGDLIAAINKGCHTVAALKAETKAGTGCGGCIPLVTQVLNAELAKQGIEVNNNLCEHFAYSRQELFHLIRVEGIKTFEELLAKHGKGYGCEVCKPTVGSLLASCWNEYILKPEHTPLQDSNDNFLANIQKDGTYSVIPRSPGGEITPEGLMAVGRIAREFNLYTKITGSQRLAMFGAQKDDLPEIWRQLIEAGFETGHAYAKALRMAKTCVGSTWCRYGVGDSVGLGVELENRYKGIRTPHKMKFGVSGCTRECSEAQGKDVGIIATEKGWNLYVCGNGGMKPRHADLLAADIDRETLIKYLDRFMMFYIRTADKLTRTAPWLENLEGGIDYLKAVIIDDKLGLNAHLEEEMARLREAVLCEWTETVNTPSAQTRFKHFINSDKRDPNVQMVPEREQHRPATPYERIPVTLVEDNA", "UniProt P00562": "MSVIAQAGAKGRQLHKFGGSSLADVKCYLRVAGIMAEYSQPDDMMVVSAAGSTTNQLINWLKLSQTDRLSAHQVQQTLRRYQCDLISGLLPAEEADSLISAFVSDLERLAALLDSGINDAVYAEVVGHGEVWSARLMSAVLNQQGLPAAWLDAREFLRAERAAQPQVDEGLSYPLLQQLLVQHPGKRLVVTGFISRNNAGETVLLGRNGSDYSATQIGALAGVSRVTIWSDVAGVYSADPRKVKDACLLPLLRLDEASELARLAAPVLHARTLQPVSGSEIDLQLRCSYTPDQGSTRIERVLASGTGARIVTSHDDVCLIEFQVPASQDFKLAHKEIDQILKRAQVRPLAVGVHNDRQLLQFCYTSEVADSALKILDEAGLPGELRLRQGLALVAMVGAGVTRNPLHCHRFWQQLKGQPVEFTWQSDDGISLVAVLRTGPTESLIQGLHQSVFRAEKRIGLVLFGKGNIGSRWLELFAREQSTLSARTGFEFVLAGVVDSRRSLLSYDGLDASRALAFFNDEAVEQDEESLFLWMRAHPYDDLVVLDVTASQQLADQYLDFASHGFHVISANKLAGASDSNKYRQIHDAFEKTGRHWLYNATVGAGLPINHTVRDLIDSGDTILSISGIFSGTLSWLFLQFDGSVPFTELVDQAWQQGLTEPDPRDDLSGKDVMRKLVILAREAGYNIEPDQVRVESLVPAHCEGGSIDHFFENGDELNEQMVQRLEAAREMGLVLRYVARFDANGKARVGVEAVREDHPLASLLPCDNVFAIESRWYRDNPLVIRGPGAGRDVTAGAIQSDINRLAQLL", "UniProt P09394": "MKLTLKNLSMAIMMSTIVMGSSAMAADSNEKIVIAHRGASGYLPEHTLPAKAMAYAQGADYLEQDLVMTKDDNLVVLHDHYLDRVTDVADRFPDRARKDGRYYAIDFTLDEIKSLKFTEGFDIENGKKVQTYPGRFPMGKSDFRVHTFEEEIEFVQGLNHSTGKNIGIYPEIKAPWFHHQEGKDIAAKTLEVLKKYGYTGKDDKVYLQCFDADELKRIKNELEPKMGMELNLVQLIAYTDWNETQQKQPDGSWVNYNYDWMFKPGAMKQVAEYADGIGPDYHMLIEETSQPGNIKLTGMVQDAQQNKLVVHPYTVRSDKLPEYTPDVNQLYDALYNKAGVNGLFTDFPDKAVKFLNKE", "UniProt P05041": "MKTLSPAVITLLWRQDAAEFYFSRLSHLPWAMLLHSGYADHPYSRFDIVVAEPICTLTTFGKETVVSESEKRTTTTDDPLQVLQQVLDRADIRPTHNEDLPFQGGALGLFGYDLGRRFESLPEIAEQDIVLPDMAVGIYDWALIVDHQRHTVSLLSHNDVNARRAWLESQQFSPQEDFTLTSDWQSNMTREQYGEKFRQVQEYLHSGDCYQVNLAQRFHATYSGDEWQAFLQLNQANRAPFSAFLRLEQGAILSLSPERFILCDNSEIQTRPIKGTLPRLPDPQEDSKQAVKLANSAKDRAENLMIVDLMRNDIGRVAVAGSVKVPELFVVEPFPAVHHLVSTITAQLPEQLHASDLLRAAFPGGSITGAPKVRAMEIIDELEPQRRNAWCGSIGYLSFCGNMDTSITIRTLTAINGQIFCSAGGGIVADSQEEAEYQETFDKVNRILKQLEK", "UniProt P07117": "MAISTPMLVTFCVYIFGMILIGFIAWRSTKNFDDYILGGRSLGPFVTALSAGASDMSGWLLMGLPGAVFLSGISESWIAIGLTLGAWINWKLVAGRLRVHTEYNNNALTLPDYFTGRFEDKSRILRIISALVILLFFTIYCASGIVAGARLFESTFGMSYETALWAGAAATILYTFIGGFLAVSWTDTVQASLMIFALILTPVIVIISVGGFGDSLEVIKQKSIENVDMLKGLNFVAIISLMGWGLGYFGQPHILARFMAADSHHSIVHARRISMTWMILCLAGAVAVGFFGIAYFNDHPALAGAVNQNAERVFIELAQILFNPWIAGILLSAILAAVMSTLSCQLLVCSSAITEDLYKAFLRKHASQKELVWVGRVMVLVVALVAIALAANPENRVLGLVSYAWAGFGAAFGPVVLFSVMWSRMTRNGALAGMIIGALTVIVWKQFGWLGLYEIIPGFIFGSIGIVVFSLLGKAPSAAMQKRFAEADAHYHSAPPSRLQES", "UniProt P02925": "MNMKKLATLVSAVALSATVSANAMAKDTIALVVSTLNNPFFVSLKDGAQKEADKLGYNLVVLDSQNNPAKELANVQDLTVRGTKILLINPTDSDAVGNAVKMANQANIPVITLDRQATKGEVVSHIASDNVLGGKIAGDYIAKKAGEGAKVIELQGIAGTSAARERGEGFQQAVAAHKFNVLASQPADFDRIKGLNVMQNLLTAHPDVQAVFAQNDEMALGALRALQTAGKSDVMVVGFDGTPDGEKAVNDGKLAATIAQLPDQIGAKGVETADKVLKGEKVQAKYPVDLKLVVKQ"}, "source": "the supplement of paper PMC12819154", "about": "“High-throughput peptide-centric local stability assay extends protein–ligand identification to membrane proteins, tissues and bacteria” (Nature Structural & Molecular Biology, 2025)", "note": "The other results are listed elsewhere or left out. Small differences around the control level are noise."}
{"compound": "CC1(C)S[C@@H]2[C@H](NC(=O)[C@H](N)c3ccccc3)C(=O)N2[C@H]1C(=O)O [ampicillin]", "assay": "log2 fold change of tryptic peptide abundance, ligand vs vehicle (limited proteolysis) (log2 ratio); higher = more trypsin-susceptible (destabilized)", "conditions": "ligand concentration: 10 uM; sample: E. coli crude lysate"}
{"target": "UniProt P09169 (peptide sequence: LGLMAGYQESR, peptide start residue: 148)", "log2 fold change": -0.129}
{"target": "UniProt P00579 (peptide sequence: AVDKFEYR, peptide start residue: 415)", "log2 fold change": -0.178}
{"target": "UniProt P03817 (peptide sequence: EYDTFCGAIDKLEAELK, peptide start residue: 94)", "log2 fold change": 0.124}
{"target": "UniProt P08192 (peptide sequence: AEDTVLVCGSFHTVAHVMEVIDAR, peptide start residue: 394)", "log2 fold change": 0.498}
{"target": "UniProt P08142 (peptide sequence: AEWHQLVADLQR, peptide start residue: 344)", "log2 fold change": 0.105}
{"target": "UniProt P08201 (peptide sequence: IPVTLVEDNA, peptide start residue: 838)", "log2 fold change": -0.918}
{"target": "UniProt P00562 (peptide sequence: HWLYNATVGAGLPINHTVR, peptide start residue: 596)", "log2 fold change": 0.279}
{"target": "UniProt P09394 (peptide sequence: DDNLVVLHDHYLDR, peptide start residue: 71)", "log2 fold change": 0.624}
{"target": "UniProt P05041 (peptide sequence: AMEIIDELEPQRR, peptide start residue: 375)", "log2 fold change": -0.255}
{"target": "UniProt P07117 (peptide sequence: FAEADAHYHSAPPSR, peptide start residue: 484)", "log2 fold change": -0.0131}
{"target": "UniProt P02925 (peptide sequence: ERGEGFQQAVAAHK, peptide start residue: 165)", "log2 fold change": -0.156}
